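Plate-reader measure of the Venus reporter marking one vaccinia stage in infected cells (the cell line is not named here); read time unknown. The test concentration is not given here. Percent change in Venus reporter signal; lower (more negative) values mean stronger inhibition of that viral stage.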

Values are in %. The controls that fix the scale are not given here. Common to all entries: measured here: Venus reporter, other viral stage. This is a side read-out of the assay, for part of the compounds, not drawn at random.

compound	activity change (Venus) (%)
C[C@H](CO)N1C[C@H](C)[C@@H](CN(C)C(=O)Nc2ccc(C(F)(F)F)cc2)OCCCC[C@H](C)Oc2ccc(NC(=O)c3ccncc3)cc2C1=O	-34.21
C[C@@H]1CN([C@@H](C)CO)C(=O)c2cc(-c3ccccc3F)cnc2O[C@@H]1CN(C)Cc1ccc(F)cc1	-24.11
CCCC#Cc1ccc2c(c1)O[C@H](CN(C)S(=O)(=O)c1cccc(F)c1)[C@H](C)CN([C@H](C)CO)S2(=O)=O	-30.99
Cc1ccccc1S(=O)(=O)N1C[C@@H](O)COC[C@@H]2O[C@H](CC(=O)N3CCC(Cc4ccccc4)CC3)CC[C@H]21	-32.81
C[C@@H]1CN([C@H](C)CO)S(=O)(=O)c2ccc(Br)cc2O[C@@H]1CN(C)S(=O)(=O)c1ccccc1	-26.97
C[C@H]1CCCCO[C@@H](CN(C)C(=O)C2CCCCC2)[C@@H](C)CN([C@@H](C)CO)C(=O)c2cc(NS(=O)(=O)c3ccccc3)ccc2O1	-29.54
C/C=C/c1ccc2c(c1)O[C@@H](CN(C)Cc1cccc(F)c1)[C@H](C)CN([C@@H](C)CO)S2(=O)=O	-42.46
C[C@@H]1CCCCO[C@@H](CN(C)Cc2ccc(Cl)c(Cl)c2)[C@@H](C)CN([C@H](C)CO)C(=O)c2cc(NC(=O)c3ccncc3)ccc2O1	-33.9
CC(C)NC(=O)Nc1cccc2c1O[C@@H](CN(C)C(=O)NC1CCCCC1)[C@@H](C)CN([C@@H](C)CO)C2=O	-27.23
O=C(C[C@H]1CC[C@H]2[C@@H](COC[C@@H](O)CN2C(=O)c2ccc(F)cc2)O1)Nc1ccc(-c2ccccc2)cc1	-39.14
C[C@@H]1CN([C@@H](C)CO)S(=O)(=O)c2ccc(C#Cc3ccccc3F)cc2O[C@H]1CN(C)CC1CCOCC1	-49.13
C[C@@H]1CN([C@H](C)CO)C(=O)c2c(c3ccccc3n2C)-c2ccccc2CO[C@@H]1CN(C)Cc1cccc(O)c1	-66.76
CC(=O)N(C)C[C@@H]1Oc2cc(C#Cc3ccc(F)cc3)ccc2S(=O)(=O)N([C@@H](C)CO)C[C@H]1C	-37.81
O=C(Nc1ccccc1)N1CCCCN2[C@H](C1)[C@@H](c1ccc(-c3ccccc3F)cc1)[C@@H]2CO	-87.36
O=C(Nc1cccc(F)c1)N1CC(=O)N2[C@H](CO)[C@H](c3ccc(-c4ccc(F)cc4)cc3)[C@@H]2C1	-51.81
C[C@@H]1CCCCO[C@H](CN(C)Cc2ccc(C(F)(F)F)cc2)[C@@H](C)CN([C@@H](C)CO)C(=O)c2cc(NS(=O)(=O)c3cccs3)ccc2O1	-61.7
C[C@H]1CN([C@@H](C)CO)C(=O)Cc2cc(NC(=O)Cc3ccccc3)ccc2O[C@H]1CN(C)S(=O)(=O)c1ccc(Cl)cc1	-46.32
C/C=C/c1ccc2c(c1)O[C@H](CN(C)C(=O)Nc1cc(F)ccc1F)[C@@H](C)CN([C@@H](C)CO)S2(=O)=O	-27.64
O=C(C[C@H]1C=C[C@H](NS(=O)(=O)c2ccc(F)cc2)[C@@H](CO)O1)N1CCC(Cc2ccccc2)CC1	-33.46
Cc1ccc(S(=O)(=O)N(C)C[C@@H]2OCCCC[C@@H](C)Oc3ccc(NC(=O)NC(C)C)cc3C(=O)N([C@H](C)CO)C[C@H]2C)cc1	-26.15
C/C=C/c1ccc([C@@H]2[C@@H](CO)N(c3nc(CC)cs3)[C@@H]2CNC(C)C)cc1	-57.97
O=C(C[C@H]1C[C@H]2c3cc(NS(=O)(=O)c4ccc(F)cc4)ccc3O[C@H]2[C@H](CO)O1)NCc1ccc(Cl)cc1	-28.01
Cc1cccc(S(=O)(=O)N2CC[C@@H]3[C@@H](CO)N(C)c4ccc(-c5ccc(C#N)cc5)cc4[C@@H]32)c1	-39.65
C[C@@H]1CCCCO[C@@H](CN(C)Cc2ccc(C(F)(F)F)cc2)[C@H](C)CN([C@@H](C)CO)C(=O)c2cc(NC(=O)CCC(F)(F)F)ccc2O1	-55.02
C[C@@H]1CN([C@@H](C)CO)C(=O)c2cc(NC(=O)c3ccccc3)ccc2O[C@@H](C)CCCCO[C@H]1CN(C)C(=O)Cc1ccccc1	-45.04
C[C@@H]1CN([C@@H](C)CO)C(=O)c2c(c3ccccc3n2C)-c2ccccc2CO[C@@H]1CN(C)S(=O)(=O)Cc1ccccc1	-59.15
COc1ccc2c3c(n(C)c2c1)[C@H](CO)N(C(=O)C1CCCC1)CC31CN(C(=O)Nc2cccc(F)c2)C1	-21.68
O=C(C[C@@H]1CC[C@H](NC(=O)c2cccc(F)c2)[C@H](CO)O1)NCc1ccc(Oc2ccccc2)cc1	-28.76
Cc1ccc(S(=O)(=O)N(C)C[C@H]2Oc3ncc(C#CCC(C)C)cc3C(=O)N([C@@H](C)CO)C[C@@H]2C)cc1	-26.48
COc1ccc(NC(=O)Nc2ccc3c(c2)C(=O)N([C@H](C)CO)C[C@@H](C)[C@@H](CN(C)Cc2ccccc2)OCCCC[C@@H](C)O3)cc1	-72.81
CC(C)CC#Cc1ccc2c(c1)O[C@H](CN(C)C(=O)Nc1ccccc1)[C@@H](C)CN([C@H](C)CO)S2(=O)=O	-21.06
C[C@H](CO)N1C[C@H](C)[C@@H](CN(C)CC2CCCC2)Oc2ncc(C#CCc3ccccc3)cc2C1=O	-66.32
CC(C)(C)[S@@](=O)N1Cc2cc(C(=O)NCc3ccc4c(c3)OCO4)nc(-c3cccc(-c4ccncc4)c3)c2[C@H]1CCO	-33.68
C[C@H](CO)N1C[C@H](C)[C@@H](CN(C)Cc2ccccc2F)Oc2cc(C#CCN(C)C)ccc2S1(=O)=O	-29.05
C[C@@H]1CN([C@@H](C)CO)C(=O)Cc2cc(NC(=O)Nc3ccc(C(F)(F)F)cc3)ccc2O[C@@H]1CN(C)C	-24.96
CC(C)NC(=O)N(C)C[C@H]1Oc2cc(C#Cc3ccc(F)cc3)ccc2S(=O)(=O)N([C@H](C)CO)C[C@H]1C	-46.64
O=S(=O)(c1cc(C(F)(F)F)ccc1Cl)N1CCN(Cc2ccc(OCCO)cc2)CC1	-37.74
N#Cc1cccc(-c2ccc3c(c2)[C@H]2[C@H](CCN2S(=O)(=O)c2ccc(F)cc2)[C@@H](CO)N3)c1	-19.19
O=C(NC1CCCCC1)N1CC(=O)N2[C@H](CO)[C@@H](c3ccc(/C=C/c4ccccc4)cc3)[C@@H]2C1	-23.41
N#C[C@@H]1[C@H](c2ccc(C3=CCCCC3)cc2)[C@H](CO)N1C(=O)NC1CCCCC1	-32.7
Cc1noc(C)c1NC(=O)Nc1ccc2c(c1)C(=O)N([C@H](C)CO)C[C@@H](C)[C@@H](CN(C)Cc1ccc(C(F)(F)F)cc1)OCCCC[C@@H](C)O2	-56.14
Cc1ccc(S(=O)(=O)Nc2ccc3c(c2)C(=O)N([C@@H](C)CO)C[C@@H](C)[C@@H](CN(C)S(=O)(=O)c2ccc(Cl)cc2)O3)cc1	-25.49
C[C@H]1CCCCO[C@H](CN(C)Cc2ccccc2)[C@@H](C)CN([C@@H](C)CO)C(=O)c2cc(NC(=O)Nc3ccc(F)cc3)ccc2O1	-56.36
C[C@@H]1CN([C@H](C)CO)C(=O)c2cc(NS(=O)(=O)c3ccccc3)ccc2O[C@@H](C)CCCCO[C@H]1CN(C)C(=O)Nc1ccc(C(F)(F)F)cc1	-27.97
CNC[C@@H]1Oc2cc(C#Cc3cccc(F)c3)ccc2S(=O)(=O)N([C@H](C)CO)C[C@H]1C	-27.5
CCC(=O)N(C)C[C@H]1Oc2cc(C#CC3CCCC3)ccc2S(=O)(=O)N([C@@H](C)CO)C[C@@H]1C	-38.88
C[C@@H]1CN([C@@H](C)CO)C(=O)c2cc(NC(=O)C3CCCCC3)ccc2O[C@@H]1CN(C)Cc1ccc(C(F)(F)F)cc1	-33.2
C[C@H]1CN([C@@H](C)CO)C(=O)Cc2cc(NC(=O)Nc3ccc(F)cc3)ccc2O[C@@H]1CN(C)Cc1ccc(C(F)(F)F)cc1	-23.56
C[C@@H]1CCCCO[C@H](CN(C)Cc2ccc3c(c2)OCO3)[C@H](C)CN([C@H](C)CO)C(=O)c2cc(NC(=O)Nc3ccc4c(c3)OCO4)ccc2O1	-45.41
COc1ccc(CN(C)C[C@H]2OCCCC[C@@H](C)Oc3ccc(NS(=O)(=O)c4ccc(Cl)cc4)cc3C(=O)N([C@H](C)CO)C[C@@H]2C)cc1	-37.77
Cc1ccc(-c2cnc3c(c2)C(=O)N([C@@H](C)CO)C[C@@H](C)[C@@H](CN(C)C(=O)Cc2ccccc2)O3)cc1	-31.63
C[C@@H]1CN([C@@H](C)CO)C(=O)c2cc(C#CC3CCCC3)cnc2O[C@@H]1CN(C)S(=O)(=O)c1cccc(F)c1	-43.09
CC(C)NC(=O)Nc1ccc2c(c1)CC(=O)N([C@@H](C)CO)C[C@@H](C)[C@H](CN(C)Cc1ccc(Cl)c(Cl)c1)O2	-57.3
C[C@@H]1CN([C@H](C)CO)S(=O)(=O)c2ccc(-c3ccccc3)cc2O[C@@H]1CN(C)S(=O)(=O)c1ccccc1F	-50.99
O=C(Nc1cccc(Cl)c1)N1C[C@H]2[C@@H](c3ccccc31)[C@H](CO)N2CC1CCCCC1	-37.32
Cc1ccc(S(=O)(=O)Nc2ccc3c(c2)C(=O)N([C@H](C)CO)C[C@@H](C)[C@@H](CN(C)C(=O)NC2CCCCC2)OCCCC[C@@H](C)O3)cc1	-50.51
Cc1ccc(S(=O)(=O)N(C)C[C@@H]2OCCCC[C@H](C)Oc3ccc(NS(=O)(=O)c4c(C)noc4C)cc3C(=O)N([C@H](C)CO)C[C@H]2C)cc1	-49.65
O=C(Nc1ccccc1F)N1CCCCN2[C@H](CO)[C@H](c3ccc(C4=CCCC4)cc3)[C@H]2C1	-34.95
C[C@H]1CCCCO[C@H](CN(C)Cc2ccncc2)[C@@H](C)CN([C@@H](C)CO)C(=O)c2cc(NC(=O)NC3CCCCC3)ccc2O1	-26.12

Repeated from the top, 6 entries:

| compound | activity change (Venus) (%) |
|---|---|
| `C[C@H](CO)N1C[C@H](C)[C@@H](CN(C)C(=O)Nc2ccc(C(F)(F)F)cc2)OCCCC[C@H](C)Oc2ccc(NC(=O)c3ccncc3)cc2C1=O` | -34.21 |
| `C[C@@H]1CN([C@@H](C)CO)C(=O)c2cc(-c3ccccc3F)cnc2O[C@@H]1CN(C)Cc1ccc(F)cc1` | -24.11 |
| `CCCC#Cc1ccc2c(c1)O[C@H](CN(C)S(=O)(=O)c1cccc(F)c1)[C@H](C)CN([C@H](C)CO)S2(=O)=O` | -30.99 |
| `Cc1ccccc1S(=O)(=O)N1C[C@@H](O)COC[C@@H]2O[C@H](CC(=O)N3CCC(Cc4ccccc4)CC3)CC[C@H]21` | -32.81 |
| `C[C@@H]1CN([C@H](C)CO)S(=O)(=O)c2ccc(Br)cc2O[C@@H]1CN(C)S(=O)(=O)c1ccccc1` | -26.97 |
| `C[C@H]1CCCCO[C@@H](CN(C)C(=O)C2CCCCC2)[C@@H](C)CN([C@@H](C)CO)C(=O)c2cc(NS(=O)(=O)c3ccccc3)ccc2O1` | -29.54 |

The results are deposited in PubChem (AID1053133; Broad Institute, 2014).